At least one structure is not confirmed: it was looked up by name or label, or the drawing left a doubt.
How the values were obtained:
strain RS1 = assay: VetMIC antibiotic resistance test; type: cell-based, L. reuteri; conditions: FIG. 4
strain CECT 9859 = assay: VetMIC antibiotic resistance test; type: cell-based, L. reuteri; conditions: FIG. 4

CN(C)[C@@H]1C(O)=C(C(N)=O)C(=O)[C@@]2(O)C(O)=C3C(=O)c4c(O)cccc4[C@@](C)(O)[C@H]3C[C@@H]12 [Tetracycline]
MIC compared with EFSA requirements (strain RS1): does not meet the EFSA requirements | MIC compared with EFSA requirements (strain CECT 9859): meets the MIC requirements of the EFSA

— patent publication US12582681B2, “Fermented milk product for administration in canids such as dogs, and uses thereof” (priority 2019, dated 2026)
